The other results are listed elsewhere or left out.
Key:
Assay in all cases: log2 fold change, soluble protein after heating vs DMSO (PISA); higher = thermal stabilisation; K562 cells, 10 uM, 30 min; active = over 0.2 and 3.5 SD of the protein, either way, in both replicates (recomputed)
ZNF787 = ZNF787 (UniProt Q6DD87)
Method in brief: (§1)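 Thermal stability values are relative to control samples and come from duplicates. They are expressed as log2 fold changes. For measurement, K562 cells (2×10^6 cells/mL) received 10 μM compound for 30 min, and aliquots were heated for 3 min over 48°C-58°C, pooled, and extracted at 4°C in PBS with 0.5% NP-40. Soluble protein, the supernatant after 21,000xg for 90 min, was quantified by TMTpro 16plex LC-MS/MS with equalised channel sums.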

Chains of the proteins cited; added tags and fusions are not shown. Lines headed by an entry give the natural chain unless they say otherwise; changes in a name come on top.
UniProt Q6DD87: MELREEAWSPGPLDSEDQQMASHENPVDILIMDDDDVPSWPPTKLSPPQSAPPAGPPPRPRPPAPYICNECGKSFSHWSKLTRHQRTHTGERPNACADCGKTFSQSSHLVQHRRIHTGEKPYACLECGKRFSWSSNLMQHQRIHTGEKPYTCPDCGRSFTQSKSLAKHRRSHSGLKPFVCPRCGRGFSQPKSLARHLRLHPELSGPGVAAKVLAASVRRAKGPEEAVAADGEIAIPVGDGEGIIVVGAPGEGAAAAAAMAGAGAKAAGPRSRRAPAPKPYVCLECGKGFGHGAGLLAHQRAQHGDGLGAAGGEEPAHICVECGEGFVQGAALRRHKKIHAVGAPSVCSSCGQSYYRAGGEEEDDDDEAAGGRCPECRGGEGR
UniProt Q2TB10: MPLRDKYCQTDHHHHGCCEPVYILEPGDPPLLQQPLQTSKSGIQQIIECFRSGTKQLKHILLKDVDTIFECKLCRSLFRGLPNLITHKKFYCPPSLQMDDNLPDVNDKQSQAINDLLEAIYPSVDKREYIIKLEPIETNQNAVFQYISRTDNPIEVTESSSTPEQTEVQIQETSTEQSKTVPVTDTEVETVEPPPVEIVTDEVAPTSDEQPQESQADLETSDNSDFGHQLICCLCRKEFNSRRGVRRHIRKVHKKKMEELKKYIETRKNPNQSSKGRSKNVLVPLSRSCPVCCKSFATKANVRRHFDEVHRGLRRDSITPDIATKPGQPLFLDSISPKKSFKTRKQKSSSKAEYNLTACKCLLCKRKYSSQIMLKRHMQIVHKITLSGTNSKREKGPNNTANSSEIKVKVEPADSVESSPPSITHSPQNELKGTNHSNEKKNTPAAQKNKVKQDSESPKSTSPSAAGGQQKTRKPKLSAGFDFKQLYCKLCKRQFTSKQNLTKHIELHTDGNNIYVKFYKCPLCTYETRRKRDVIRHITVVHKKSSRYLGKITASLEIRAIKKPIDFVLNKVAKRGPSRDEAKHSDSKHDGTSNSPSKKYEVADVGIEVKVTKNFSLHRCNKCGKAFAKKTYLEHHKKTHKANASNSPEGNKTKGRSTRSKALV
UniProt Q96NB3: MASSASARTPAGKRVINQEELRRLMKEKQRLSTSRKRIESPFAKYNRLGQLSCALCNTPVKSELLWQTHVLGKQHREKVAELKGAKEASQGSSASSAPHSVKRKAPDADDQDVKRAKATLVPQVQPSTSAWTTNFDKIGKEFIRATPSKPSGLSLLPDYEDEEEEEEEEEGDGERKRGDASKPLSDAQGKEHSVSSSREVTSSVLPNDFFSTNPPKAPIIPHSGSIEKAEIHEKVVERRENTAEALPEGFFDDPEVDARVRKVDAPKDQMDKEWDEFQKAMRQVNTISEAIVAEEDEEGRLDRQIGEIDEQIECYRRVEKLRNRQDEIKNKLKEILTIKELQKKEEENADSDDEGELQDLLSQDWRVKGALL
UniProt Q6ZMS4: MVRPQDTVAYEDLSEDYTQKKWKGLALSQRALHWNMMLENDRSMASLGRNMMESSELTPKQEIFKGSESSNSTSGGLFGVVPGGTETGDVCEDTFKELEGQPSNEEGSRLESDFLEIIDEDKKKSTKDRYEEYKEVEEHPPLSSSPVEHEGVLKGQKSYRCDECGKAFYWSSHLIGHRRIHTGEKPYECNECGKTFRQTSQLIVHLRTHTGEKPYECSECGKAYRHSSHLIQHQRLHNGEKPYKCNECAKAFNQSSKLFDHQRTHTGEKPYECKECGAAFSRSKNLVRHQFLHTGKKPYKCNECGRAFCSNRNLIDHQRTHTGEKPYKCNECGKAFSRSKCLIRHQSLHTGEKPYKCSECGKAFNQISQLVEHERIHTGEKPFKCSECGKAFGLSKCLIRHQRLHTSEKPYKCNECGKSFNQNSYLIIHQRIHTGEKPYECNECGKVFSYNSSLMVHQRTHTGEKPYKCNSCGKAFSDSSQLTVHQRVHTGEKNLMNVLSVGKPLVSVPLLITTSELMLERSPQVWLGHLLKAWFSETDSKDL
UniProt O43257, whole entry, looked up: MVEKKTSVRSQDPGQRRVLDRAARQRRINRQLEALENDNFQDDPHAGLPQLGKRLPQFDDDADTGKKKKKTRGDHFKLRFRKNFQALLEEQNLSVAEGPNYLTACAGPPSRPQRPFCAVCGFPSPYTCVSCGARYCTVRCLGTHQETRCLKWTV
UniProt Q15649: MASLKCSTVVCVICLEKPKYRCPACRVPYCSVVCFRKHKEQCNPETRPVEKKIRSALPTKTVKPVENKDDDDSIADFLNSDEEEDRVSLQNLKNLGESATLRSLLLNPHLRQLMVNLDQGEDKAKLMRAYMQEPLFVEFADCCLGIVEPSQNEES
UniProt Q9NWK9: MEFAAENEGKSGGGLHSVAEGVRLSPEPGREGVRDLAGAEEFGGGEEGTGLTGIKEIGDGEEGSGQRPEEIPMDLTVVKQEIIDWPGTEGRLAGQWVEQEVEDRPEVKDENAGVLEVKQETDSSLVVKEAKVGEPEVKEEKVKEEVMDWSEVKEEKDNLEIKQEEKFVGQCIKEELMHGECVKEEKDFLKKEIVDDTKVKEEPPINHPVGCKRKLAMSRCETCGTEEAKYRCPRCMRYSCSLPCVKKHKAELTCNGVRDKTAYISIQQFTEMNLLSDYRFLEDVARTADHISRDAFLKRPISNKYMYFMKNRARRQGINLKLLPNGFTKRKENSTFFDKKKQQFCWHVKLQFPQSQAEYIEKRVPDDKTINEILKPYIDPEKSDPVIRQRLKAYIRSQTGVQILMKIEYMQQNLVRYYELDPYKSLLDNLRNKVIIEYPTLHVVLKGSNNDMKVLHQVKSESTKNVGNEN
UniProt Q9P1U0, whole entry, looked up: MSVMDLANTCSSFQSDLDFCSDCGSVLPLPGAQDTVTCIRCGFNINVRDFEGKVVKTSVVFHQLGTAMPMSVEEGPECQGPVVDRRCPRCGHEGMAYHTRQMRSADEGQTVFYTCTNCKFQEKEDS
UniProt Q9UHR6: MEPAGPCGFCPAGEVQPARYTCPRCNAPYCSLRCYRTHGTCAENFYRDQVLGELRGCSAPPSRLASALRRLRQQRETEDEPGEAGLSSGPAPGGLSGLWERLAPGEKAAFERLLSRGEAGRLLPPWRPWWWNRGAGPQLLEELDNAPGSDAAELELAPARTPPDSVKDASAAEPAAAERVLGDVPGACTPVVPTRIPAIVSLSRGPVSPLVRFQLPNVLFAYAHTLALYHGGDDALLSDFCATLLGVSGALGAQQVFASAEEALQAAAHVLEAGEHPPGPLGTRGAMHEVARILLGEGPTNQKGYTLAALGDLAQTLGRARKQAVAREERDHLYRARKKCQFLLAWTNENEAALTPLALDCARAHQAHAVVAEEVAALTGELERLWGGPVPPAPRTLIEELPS

ZNF800 = ZNF800 (UniProt Q2TB10)
Method in brief: as §1

ZNF830 = ZNF830 (UniProt Q96NB3)
Method in brief: as §1

ZNF852 = ZNF852 (UniProt Q6ZMS4)
Method in brief: as §1

ZNHIT1 = ZNHIT1 (UniProt O43257)
Method in brief: as §1

ZNHIT3 = ZNHIT3 (UniProt Q15649)
Method in brief: as §1

ZNHIT6 = ZNHIT6 (UniProt Q9NWK9)
Method in brief: as §1

ZNRD1 = ZNRD1 (UniProt Q9P1U0)
Method in brief: as §1

ZNHIT2 = ZNHIT2 (UniProt Q9UHR6)
Method in brief: as §1

Measured: log2 fold change

Cc1ccc(NC(=O)c2cccc(C(C)(C)C#N)c2)cc1Nc1ccc2ncn(C)c(=O)c2c1
inactive: ZNF787 = -0.018 | ZNF800 = -0.148 | ZNF830 = -0.036 | ZNF852 = -0.112 | ZNHIT1 = -0.036 | ZNHIT3 = -0.016 | ZNHIT6 = -0.176 | ZNRD1 = -0.002

O=C(CCCCCCNC(=O)c1cnc(N(c2ccccc2)c2ccccc2Cl)nc1)NO [citarinostat]
inactive: ZNF787 = -0.064 | ZNF800 = 0.041 | ZNF830 = 0.007 | ZNF852 = -0.144 | ZNHIT1 = -0.27 | ZNHIT3 = -0.013 | ZNRD1 = -0.005

CS(=O)(=O)c1ccc(-c2cnc(N)c(C(=O)Nc3ccccc3)n2)cc1
inactive: ZNF787 = -0.029 | ZNF800 = -0.02 | ZNF830 = -0.008 | ZNF852 = 0.436 | ZNHIT1 = 0.032 | ZNHIT3 = 0.008 | ZNHIT6 = -0.046 | ZNRD1 = -0.002

CN1CCC(CNc2ccc3ncc(-c4cccc(OC(F)(F)F)c4)n3n2)CC1
inactive: ZNF787 = 0.019 | ZNF800 = -0.057 | ZNF830 = -0.002 | ZNHIT1 = 0.328 | ZNHIT2 = 0.072 | ZNHIT3 = 0.04 | ZNHIT6 = 0.016 | ZNRD1 = -0.07

Cc1cccc(-c2[nH]c(C(C)(C)C)nc2-c2ccc3nccnc3c2)n1
inactive: ZNF787 = -0.076 | ZNF800 = -0.168 | ZNF830 = 0.039 | ZNF852 = -0.105 | ZNHIT3 = -0.031 | ZNHIT6 = 0.056 | ZNRD1 = 0.053

O=C(O)c1ccc2c(c1)nc(Nc1cccc(Cl)c1)c1ccncc12 [silmitasertib]
inactive: ZNF787 = 0.067 | ZNF800 = 0.145 | ZNF830 = -0.004 | ZNF852 = 0.208 | ZNHIT1 = -0.021 | ZNHIT2 = 0.199 | ZNHIT3 = -0.016 | ZNRD1 = -0.015

CC(C)N(C[C@H]1O[C@@H](n2cnc3c(N)ncnc32)[C@H](O)[C@@H]1O)[C@H]1C[C@@H](CCc2nc3cc(C(C)(C)C)ccc3[nH]2)C1 [pinometostat]
inactive: ZNF787 = 0.241 | ZNF800 = 0.534 | ZNF830 = -0.052 | ZNF852 = 0.227 | ZNHIT3 = -0.066 | ZNHIT6 = 0.098 | ZNRD1 = -0.187

NC(=O)Nc1cc(-c2cccc(F)c2)sc1C(=O)N[C@H]1CCCNC1
inactive: ZNF787 = 0.043 | ZNF800 = -0.036 | ZNF830 = 0.035 | ZNF852 = 0.309 | ZNHIT1 = 0 | ZNHIT3 = 0.018 | ZNHIT6 = -0.035 | ZNRD1 = -0.016

FC(F)(F)c1ccc(/C=C/c2nc(COc3ccc(CCCCn4ccnn4)cc3)co2)cc1 [mubritinib]
inactive: ZNF787 = -0.079 | ZNF800 = -0.131 | ZNF830 = 0.027 | ZNF852 = -0.334 | ZNHIT1 = -0.167 | ZNHIT2 = -0.233 | ZNHIT3 = 0.014 | ZNRD1 = -0.053

Cc1cc(Nc2cc(CN3CCOCC3)c3nc(C)c(Cc4ccc(Cl)cc4F)n3n2)n[nH]1 [gandotinib]
inactive: ZNF787 = 0.114 | ZNF800 = 0.178 | ZNF830 = 0.082 | ZNHIT1 = 0.049 | ZNHIT2 = 0.235 | ZNHIT3 = 0.041 | ZNHIT6 = -0.081 | ZNRD1 = 0.035

Among those listed so far, these have a CF3 group:
CN1CCC(CNc2ccc3ncc(-c4cccc(OC(F)(F)F)c4)n3n2)CC1
inactive: ZNF787 = 0.019 | ZNF800 = -0.057 | ZNF830 = -0.002 | ZNHIT1 = 0.328 | ZNHIT2 = 0.072 | ZNHIT3 = 0.04 | ZNHIT6 = 0.016 | ZNRD1 = -0.07

FC(F)(F)c1ccc(/C=C/c2nc(COc3ccc(CCCCn4ccnn4)cc3)co2)cc1 [mubritinib]
inactive: ZNF787 = -0.079 | ZNF800 = -0.131 | ZNF830 = 0.027 | ZNF852 = -0.334 | ZNHIT1 = -0.167 | ZNHIT2 = -0.233 | ZNHIT3 = 0.014 | ZNRD1 = -0.053

Remaining list, next part

COc1ccc(Cn2ccc3ccc(C(=O)NO)cc32)cc1
inactive: ZNF787 = -0.031 | ZNF800 = -0.017 | ZNF830 = 0.086 | ZNF852 = 0.098 | ZNHIT3 = 0.031 | ZNHIT6 = -0.046 | ZNRD1 = 0.346

CCn1cc(-c2ccnc3[nH]c(-c4cccc(CN(C)C)c4)cc23)c(-c2ccc(NC(=O)N(C)C)cc2)n1
inactive: ZNF787 = 0 | ZNF800 = 0.109 | ZNF830 = 0 | ZNHIT1 = 0.051 | ZNHIT2 = 0.183 | ZNHIT3 = 0 | ZNHIT6 = -0.013 | ZNRD1 = 0.074

CC[C@@H]1C(=O)N(C)c2cnc(Nc3ccc(C(=O)NC4CCN(C)CC4)cc3OC)nc2N1C1CCCC1
inactive: ZNF787 = 0.125 | ZNF800 = 0.135 | ZNF830 = 0.018 | ZNF852 = 0.179 | ZNHIT1 = -0.439 | ZNHIT3 = 0.034 | ZNRD1 = 0.03

c1cn2cc(-c3ccc4cn[nH]c4c3)nc(Nc3ccc(N4CCOCC4)cc3)c2n1 [entospletinib]
inactive: ZNF787 = 0.066 | ZNF800 = 0.112 | ZNF830 = 0.003 | ZNF852 = -0.277 | ZNHIT1 = 0.041 | ZNHIT3 = -0.018 | ZNRD1 = -0.011

O=C(CCCCCCC(=O)Nc1ccccc1)NO [vorinostat]
inactive: ZNF787 = 0.098 | ZNF800 = 0.06 | ZNF830 = -0.046 | ZNHIT1 = -0.033 | ZNHIT2 = 0.135 | ZNHIT3 = 0.026 | ZNHIT6 = 0.068 | ZNRD1 = -0.129

Cc1ccc(-n2nc(C(C)(C)C)cc2NC(=O)Nc2ccc(OCCN3CCOCC3)c3ccccc23)cc1 [doramapimod]
inactive: ZNF787 = 0.166 | ZNF800 = 0.377 | ZNF830 = -0.002 | ZNF852 = 0.232 | ZNHIT3 = 0.065 | ZNHIT6 = -0.052 | ZNRD1 = 0.025

COc1cccc2cc(-c3nc([C@H]4CC[C@H](C(=O)O)CC4)n4ncnc(N)c34)[nH]c12
inactive: ZNF787 = -0.077 | ZNF800 = -0.183 | ZNF830 = 0.026 | ZNF852 = 0.402 | ZNHIT1 = 0.067 | ZNHIT2 = -0.11 | ZNHIT3 = -0.053 | ZNRD1 = -0.012

COC(=O)N[C@@H](C)CNc1nccc(-c2cn(C(C)C)nc2-c2cc(Cl)cc(NS(C)(=O)=O)c2F)n1 [encorafenib]
inactive: ZNF787 = 0.108 | ZNF800 = 0.242 | ZNF830 = -0.013 | ZNF852 = -0.11 | ZNHIT1 = -0.1 | ZNHIT3 = -0.003 | ZNRD1 = -0.098

O=C(Nc1nc2ccccc2n1CCN1CCOCC1)c1cccc([N+](=O)[O-])c1 [IRAK-1-4 Inhibitor I]
inactive: ZNF787 = -0.024 | ZNF800 = -0.221 | ZNF830 = 0.067 | ZNF852 = -0.053 | ZNHIT3 = -0.009 | ZNHIT6 = 0 | ZNRD1 = 0.132

Cc1cccc(CC(=O)N2CCc3c2ccc(-c2cn(C)c4ncnc(N)c24)c3F)n1
inactive: ZNF787 = -0.016 | ZNF800 = 0.033 | ZNF830 = -0.095 | ZNHIT1 = 0.055 | ZNHIT2 = 0.011 | ZNHIT3 = -0.005 | ZNHIT6 = 0.015 | ZNRD1 = -0.089

c1cc(OCCN2CCCCC2)cc(-c2n[nH]c3ccc(-c4nnc[nH]4)cc23)c1
inactive: ZNF787 = -0.247 | ZNF800 = -0.246 | ZNF830 = -0.007 | ZNF852 = -0.104 | ZNHIT1 = 0.1 | ZNHIT3 = -0.038 | ZNRD1 = 0.036

CON(C)C(=O)N1N=C(c2cc(F)ccc2F)S[C@@]1(CCCN)c1ccccc1 [filanesib]
inactive: ZNF787 = 0.255 | ZNF800 = 0.426 | ZNF830 = -0.026 | ZNF852 = -0.017 | ZNHIT1 = 0.156 | ZNHIT3 = 0.061 | ZNHIT6 = 0.027 | ZNRD1 = 0.018

NC1(c2ccc(-c3nc4ccn5c(=O)[nH]nc5c4cc3-c3ccccc3)cc2)CCC1
inactive: ZNF787 = 0.165 | ZNF800 = 0.211 | ZNF830 = 0.023 | ZNF852 = 0.343 | ZNHIT1 = 0.194 | ZNHIT2 = 0.145 | ZNHIT3 = 0.006 | ZNRD1 = 0.066

COc1cc(Nc2ncc3c(n2)-c2ccc(Cl)cc2C(c2c(F)cccc2OC)=NC3)ccc1C(=O)O [alisertib]
inactive: ZNF787 = -0.02 | ZNF800 = -0.03 | ZNF830 = 0.027 | ZNF852 = -0.141 | ZNHIT1 = 0.374 | ZNHIT2 = -0.039 | ZNHIT3 = 0.008 | ZNRD1 = -0.14

CCCc1cc(C)[nH]c(=O)c1CNC(=O)c1cc(-c2ccnc(N3CCN(C)CC3)c2)cc2c1cnn2C(C)C
inactive: ZNF787 = 0.123 | ZNF800 = 0.37 | ZNF830 = -0.038 | ZNF852 = -0.132 | ZNHIT1 = 0.059 | ZNHIT2 = 0.257 | ZNHIT3 = -0.059 | ZNRD1 = 0.028

Nc1ccccc1NC(=O)c1ccc(CNC(=O)OCc2cccnc2)cc1 [entinostat]
inactive: ZNF787 = -0.072 | ZNF800 = 0.09 | ZNF830 = -0.029 | ZNF852 = -0.169 | ZNHIT1 = 0.098 | ZNHIT3 = -0.053 | ZNHIT6 = 0.054 | ZNRD1 = -0.002

C[C@@H](Oc1cc(-c2cnn(C3CCNCC3)c2)cnc1N)c1c(Cl)ccc(F)c1Cl [crizotinib]
inactive: ZNF787 = -0.026 | ZNF800 = -0.023 | ZNF830 = 0.019 | ZNF852 = -0.013 | ZNHIT3 = 0.085 | ZNHIT6 = 0.02 | ZNRD1 = 0.18

CNCc1ccc(-c2[nH]c3cc(F)cc4c3c2CCNC4=O)cc1 [rucaparib]
inactive: ZNF787 = 0.264 | ZNF800 = 0.307 | ZNF830 = -0.033 | ZNF852 = -0.041 | ZNHIT1 = -0.072 | ZNHIT3 = -0.016 | ZNRD1 = -0.009

CS(=O)(=O)N1CCN(Cc2cc3nc(-c4cccc5[nH]ncc45)nc(N4CCOCC4)c3s2)CC1 [pictilisib]
inactive: ZNF787 = -0.063 | ZNF800 = -0.043 | ZNF830 = -0.012 | ZNHIT1 = 0.017 | ZNHIT2 = -0.027 | ZNHIT3 = -0.123 | ZNHIT6 = 0.099 | ZNRD1 = -0.18

Source: the supplement of paper PMC10849652
